This passage reports binding results from publication PMC9278747.

Protein sequences, listed by entry. Tags and fused reporters are not part of them. Lines headed by an entry give the natural chain unless they say otherwise; changes in a name come on top.
UniProt P33297: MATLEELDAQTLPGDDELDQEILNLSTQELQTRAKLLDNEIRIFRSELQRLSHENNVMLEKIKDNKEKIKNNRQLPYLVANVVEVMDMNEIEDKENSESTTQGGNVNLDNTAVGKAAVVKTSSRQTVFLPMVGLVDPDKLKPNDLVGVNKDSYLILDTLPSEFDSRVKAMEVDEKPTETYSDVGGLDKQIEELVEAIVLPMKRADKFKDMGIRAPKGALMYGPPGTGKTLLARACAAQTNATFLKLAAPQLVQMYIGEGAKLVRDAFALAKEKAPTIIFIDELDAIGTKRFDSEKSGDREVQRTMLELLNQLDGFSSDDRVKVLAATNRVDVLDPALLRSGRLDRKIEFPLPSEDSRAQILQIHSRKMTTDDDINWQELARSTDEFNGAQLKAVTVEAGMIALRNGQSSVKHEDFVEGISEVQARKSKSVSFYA

This test has as its target OtUBD resin (Cys-OtUBD or Cys-His6-OtUBD covalently linked to SulfoLink resin) (Orientia tsutsugamushi) (UniProt B3CVM3). In words: pull-down; only the target purified.

No constants are given. Whether binding was seen depends on the method and setting. In cells and extracts the contact can be indirect. Some binding calls cover weakened binding; strength is not graded here.

For the substance “likely monoubiquitylated Rpt5PA (additional slower-migrating Rpt5PA species) (from UniProt P33297 1-434; P0CG63 1-76)”, the binding entry is recorded as “binds”.

Turning to “ubiquitin (yeast, free) (from UniProt P0CG63 1-76)”, the binding entry was “binds”. To “ubiquitylated Rpt5PA (higher mass species, likely endogenous polyubiquitylated Rpt5PA) (from UniProt P33297 1-434; P0CG63 1-76)” belongs “binds”.
